Data: PubChem BioAssay AID256 (DTP/NCI, 2004)
The list is a part of this screen's results and no random one: it is rich in T/C values a quarter to a half above the control, in often repeated tests (any T/C) and in doses without a T/C. Other doses and runs of a compound stand elsewhere. T/C: endpoint of the treated group in % of that of the vehicle group. Some doses have a count of surviving animals in place of a T/C: the source files T/C as zero there, which appears to mark a toxic dose or a test without result, not a measured value. Some survivor counts are full or nearly so, which does not show that the dose was tolerated: survival well below the control is almost never listed, so the zero probably covers shortened survival too. Survivors were counted at the toxicity check, usually on the fifth day, unless a day is given; later deaths do not show. Schedules are NCI's codes, read here as Q, the interval in days (D) or hours (H), X, the number of doses. Some doses were run more than once; the results are listed from low to high. Where survival is the endpoint, this PubChem deposit counts one and a half times the control or more as active, and values a quarter to a half above the control carry no call in these data; other NCI protocols may use other cut-offs.

Test system: CD2F1 mice, L1210 leukemia ip, survival T/C
Experiment: NCI In Vivo Anticancer Drug Screen. Data for tumor model L1210 Leukemia (intraperitoneal) in CD2F1 (CDF1) mice
Conditions: higher T/C = longer survival
In short: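 In this screen, transplantable tumors were grown in mice given either the compound or its vehicle. Results were expressed as the treated measurement relative to the control measurement.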

[1] = T/C endpoint: mean survival time, dose: 100.0 mg/kg/injection, schedule: Q04DX002 (ip), vehicle: saline with Tween-80
[2] = T/C endpoint: mean survival time, dose: 200.0 mg/kg/injection, schedule: Q04DX002 (ip), vehicle: saline with Tween-80
[3] = T/C endpoint: mean survival time, dose: 400.0 mg/kg/injection, schedule: Q04DX002 (ip), vehicle: saline with Tween-80
[4] = T/C endpoint: mean survival time, dose: 200.0 mg/kg/injection, schedule: Q04DX003 (ip), vehicle: saline with Tween-80
[5] = T/C endpoint: mean survival time, dose: 200.0 mg/kg/injection, schedule: Q01DX009 (ip), vehicle: saline with Tween-80
[6] = T/C endpoint: mean survival time, dose: 400.0 mg/kg/injection, schedule: Q01DX009 (ip), vehicle: saline
[7] = T/C endpoint: mean survival time, dose: 400.0 mg/kg/injection, schedule: Q01DX009 (ip), vehicle: saline with Tween-80
[8] = T/C endpoint: mean survival time, dose: 400.0 mg/kg/injection, schedule: Q04DX003 (ip), vehicle: saline with Tween-80
[9] = T/C endpoint: mean survival time, dose: 100.0 mg/kg/injection, schedule: Q01DX009 (ip), vehicle: saline with Tween-80

Compound: CCCCSP(=O)(CCl)SCCCC
- survivor count [1]: 3 of 3
- survivor count [2]: 1 of 3
- survivor count [3]: 0 of 3

Compound: O=C(O)C(O)C(O)C(O)C(O)C(=O)O.[NH-]C1CCCCC1[NH-].[Pt+2] (stereo not drawn)
- T/C (T/C endpoint: median survival time, dose: 25.0 mg/kg/injection, schedule: Q04DX003 (ip), vehicle: saline): 126 % of control

Compound: CC(=O)O[C@@H]1CO[C@H]2O[C@H]3[C@@H](C(C=O)=C[C@H](O)[C@@H]4C5=C(C(C)C)CC[C@]5(C)CC[C@@]34C)[C@@]2(O)C1=O
- survivor count (T/C endpoint: mean survival time, dose: 12.0 mg/kg/injection, schedule: Q01DX009 (ip), vehicle: Klucel (hydroxypropylcellulose) (HPC)): 2 of 6
- survivor count (T/C endpoint: mean survival time, dose: 24.0 mg/kg/injection, schedule: Q01DX009 (ip), vehicle: Klucel (hydroxypropylcellulose) (HPC)): 0 of 6

Compound: CCOC(=O)N1CCc2cc(OC)c(OC)cc2C1=C(c1ccccc1)c1ccccc1
- survivor count [4]: 6 of 6

Compound: CCOc1cc(C(F)(F)F)nc2c3c(cc(OC)c12)CCCN3CC
- survivor count [5]: 2 of 6

Compound: COc1cc2c(cc1OC)C(CCN1C(=O)CCC1=O)=NCC2
- survivor count (T/C endpoint: mean survival time, dose: 400.0 mg/kg/injection, schedule: Q04DX003 (ip), vehicle: saline sonified): 6 of 6

Compound: CCN(N=O)C(=O)Nc1ccc(C2CC(=O)N(C)C2=O)cc1 (stereo not drawn)
- T/C (T/C endpoint: mean survival time, dose: 200.0 mg/kg/injection, schedule: Q01DX001 (ip), vehicle: distilled water + Tween-80): 126 % of control
- survivor count (T/C endpoint: mean survival time, dose: 400.0 mg/kg/injection, schedule: Q01DX001 (ip), vehicle: distilled water + Tween-80): 0 of 6 and 2 of 6

Compound: C[N+](C)(C)c1ncnc2c1ncn2C1CCCO1 (stereo not drawn)
- survivor count (T/C endpoint: mean survival time, dose: 200.0 mg/kg/injection, schedule: Q01DX009 (ip), vehicle: saline): 0 of 6
- survivor count [6]: 0 of 6

Compound: O=C(O)c1ccc2cc(O)ccc2c1
- survivor count [6]: 3 of 6

Compound: COC(=O)c1ccc(SCC2=Nc3c(nc(N)[nH]c3=O)NCC2)cc1
- survivor count (T/C endpoint: mean survival time, dose: 24.0 mg/kg/injection, schedule: Q01DX009 (ip), vehicle: distilled water + Tween-80): 6 of 6

Compound: Cc1ccc(C2(c3ccccc3)OC(=O)c3ccccc32)cc1 (stereo not drawn)
- survivor count [5]: 6 of 6
- survivor count [7]: 5 of 6

Compound: CC(C)(C#N)N1CCCCC1
- survivor count (T/C endpoint: mean survival time, dose: 10.0 mg/kg/injection, schedule: Q04DX003 (ip), vehicle: saline): 3 of 6
- survivor count (T/C endpoint: mean survival time, dose: 20.0 mg/kg/injection, schedule: Q04DX003 (ip), vehicle: saline): 2 of 6
- survivor count (T/C endpoint: mean survival time, dose: 100.0 mg/kg/injection, schedule: Q04DX003 (ip), vehicle: saline with Tween-80): 0 of 6
- survivor count [4]: 0 of 6
- survivor count [8]: 0 of 6

Compound: c1cc[n+](Cc2ccc3ccccc3c2)c(C2OCCO2)c1
- survivor count [9]: 0 of 6
- survivor count [5]: 0 of 6
- survivor count [7]: 1 of 6

Compound: NC(CSS(=O)(=O)O)=NCC1CCCCC1
- T/C (T/C endpoint: mean survival time, dose: 25.0 mg/kg/injection, schedule: Q04DX002 (ip), vehicle: saline with Tween-80): 125 % of control
- survivor count (T/C endpoint: mean survival time, dose: 50.0 mg/kg/injection, schedule: Q04DX002 (ip), vehicle: saline with Tween-80): 0 of 3
- survivor count [1]: 0 of 3
- survivor count [2]: 0 of 3
- survivor count [3]: 0 of 3

Compound: [Cl][Sb]([c]1ccccc1)([c]1ccccc1)([c]1ccccc1)[c]1ccccc1
- survivor count (T/C endpoint: mean survival time, dose: 18.8 mg/kg/injection, schedule: Q04DX003 (ip), vehicle: saline): 2 of 6

Compound: CCCCN1C(=O)C(=O)N(c2ccc(S(N)(=O)=O)cc2)C1=O
- survivor count [5]: 0 of 3

Compound: Nc1nc2c(ncn2CCCc2ccccc2)c(=O)[nH]1
- survivor count (T/C endpoint: mean survival time, dose: 400.0 mg/kg/injection, schedule: Q01DX001 (ip), vehicle: saline with Tween-80): 3 of 6

Compound: CC1CC[N-]CC1.CC1CC[N-]CC1.CS(C)=O.[Cl][Rh]([Cl])[Cl]
- survivor count (T/C endpoint: mean survival time, dose: 25.0 mg/kg/injection, schedule: Q01DX009 (ip), vehicle: saline with Tween-80): 4 of 6
- survivor count (T/C endpoint: mean survival time, dose: 50.0 mg/kg/injection, schedule: Q01DX009 (ip), vehicle: saline with Tween-80): 0 of 6
- survivor count [9]: 0 of 6
- survivor count [4]: 0 of 6
- survivor count [8]: 0 of 6
